These are yes or no findings as the source states them, for the method shown. In cells and extracts the contact can be indirect. Here binding means that the protein was enriched with, or labelled near, the bait; the list need not be complete. Where a sequence is shown, tags or fusion partners need not be part of it.
Molecular target: T1, FLAG-ATGL (adipose triglyceride lipase) (not stated (human or mouse cDNA cloned)) (UniProt Q8BJ56)
T1 sequence: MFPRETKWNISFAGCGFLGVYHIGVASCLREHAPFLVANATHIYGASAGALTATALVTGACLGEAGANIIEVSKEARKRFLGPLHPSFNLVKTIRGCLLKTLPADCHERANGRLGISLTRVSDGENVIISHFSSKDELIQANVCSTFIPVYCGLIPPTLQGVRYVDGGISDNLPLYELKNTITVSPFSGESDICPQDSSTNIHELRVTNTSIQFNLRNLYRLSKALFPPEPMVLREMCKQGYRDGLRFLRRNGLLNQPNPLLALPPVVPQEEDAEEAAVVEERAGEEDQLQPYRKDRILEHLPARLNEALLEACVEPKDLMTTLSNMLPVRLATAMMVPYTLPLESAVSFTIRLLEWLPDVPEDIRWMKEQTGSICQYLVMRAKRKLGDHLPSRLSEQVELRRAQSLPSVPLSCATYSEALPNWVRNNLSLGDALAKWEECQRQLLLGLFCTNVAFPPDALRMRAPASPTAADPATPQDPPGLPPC
Experiment: affinity purification with mass spectrometry; FLAG-ATGL expressed in HCT116 cells, hypoxia 24 hr; anti-FLAG M2 agarose gels, 4 hr at 4°C, lysis buffer 50 mM Tris-HCl pH 7.4, 150 mM NaCl, 1% Triton X-100, 1 mM DTT; eluate on 10-20% SDS-PAGE, gel portions digested with trypsin, LC-ESI-MS/MS

- binding: binds
B1: HIG2 (hypoxia-inducible gene 2 protein), endogenous (protein, UniProt Q9Y5L2 1-63)
chain: MKHVLNLYLLGVVLTLLSIFVRVMESLEGLLESPSPGTSWTTRSQLANTEPTKGLPDHPSRSM

Source: article PMC5739538
